Reference: article PMC4377584
Results are given in words; binding and its absence hold for the method and conditions named. In cells and extracts the contact can be indirect. Where a sequence is shown, tags or fusion partners need not be part of it.

Molecular target: T1, Flag-tagged NPRL2, Q8WTW4
T1 chain: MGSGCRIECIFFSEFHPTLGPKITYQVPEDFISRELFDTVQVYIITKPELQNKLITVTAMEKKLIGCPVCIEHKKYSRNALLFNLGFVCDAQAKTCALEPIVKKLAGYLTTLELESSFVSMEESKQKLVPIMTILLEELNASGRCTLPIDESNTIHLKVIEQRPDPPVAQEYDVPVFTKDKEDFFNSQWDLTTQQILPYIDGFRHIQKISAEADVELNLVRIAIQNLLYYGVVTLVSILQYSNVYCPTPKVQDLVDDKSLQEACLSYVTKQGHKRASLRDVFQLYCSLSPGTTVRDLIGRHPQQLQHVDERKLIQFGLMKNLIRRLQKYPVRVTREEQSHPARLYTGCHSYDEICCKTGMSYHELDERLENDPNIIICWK
Assay: co-IP; HEK293 cells co-transfected with HA-tagged Sestrin2 and GATOR1 and GATOR2 components; Flag-NPRL2 (Fig. 2A) or Flag-WDR24 (Fig. 2B, S4) IPed with Flag antibody; immunoblot
Details: remark: other sources report otherwise

B1: HA-tagged Sestrin2, P58004 1-480 (protein)
chain: MIVADSECRAELKDYLRFAPGGVGDSGPGEEQRESRARRGPRGPSAFIPVEEVLREGAESLEQHLGLEALMSSGRVDNLAVVMGLHPDYFTSFWRLHYLLLHTDGPLASSWRHYIAIMAAARHQCSYLVGSHMAEFLQTGGDPEWLLGLHRAPEKLRKLSEINKLLAHRPWLITKEHIQALLKTGEHTWSLAELIQALVLLTHCHSLSSFVFGCGILPEGDADGSPAPQAPTPPSEQSSPPSRDPLNNSGGFESARDVEALMERMQQLQESLLRDEGTSQEEMESRFELEKSESLLVTPSADILEPSPHPDMLCFVEDPTFGYEDFTRRGAQAPPTFRAQDYTWEDHGYSLIQRLYPEGGQLLDEKFQAAYSLTYNTIAMHSGVDTSVLRRAIWNYIHCVFGIRYDDYDYGEVNQLLERNLKVYIKTVACYPEKTTRRMYNLFWRHFRHSEKVHVNLLLLEARMQAALLYALRAITRYMT
- binding: no binding
